The target in experiment [1] is T1, recombinant His-tagged NMAD-1 (C. elegans) (UniProt Q8MNT9).
T1 sequence: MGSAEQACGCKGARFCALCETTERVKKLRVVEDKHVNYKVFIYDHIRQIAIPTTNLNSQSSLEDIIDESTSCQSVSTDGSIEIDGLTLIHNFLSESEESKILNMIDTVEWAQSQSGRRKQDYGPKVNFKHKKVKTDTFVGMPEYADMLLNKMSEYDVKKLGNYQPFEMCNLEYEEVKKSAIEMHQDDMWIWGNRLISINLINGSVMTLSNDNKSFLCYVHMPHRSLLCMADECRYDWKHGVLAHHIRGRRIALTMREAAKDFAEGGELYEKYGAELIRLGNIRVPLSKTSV
Briefly: pull-down; co-expression of His-tagged NMAD-1 and candidate proteins in BL21, His pull down; bands identified by molecular weight only.

The target of experiment [2] is GST-tagged MTSS-1 (C. elegans). Briefly: pull-down; 3 μg GST-tagged protein on glutathione sepharose 4B beads with 1 μg HIS-tagged NMAD-1 in TAP wash buffer (50 mM Tris-HCl pH 8.0, 100 mM KCl), 1 h at 4 °C; blot probed with HIS antibody; both purified.

Results are given in words; binding and its absence hold for the method and conditions named. A result given as binding can be weak or reduced; the word gives no strength. Sequences can lack the tags named with a protein. For part of these data: In cells and extracts the contact can be indirect.

Take “F37C4.5 co-expressed with His-tagged NMAD-1 in BL21 (C. elegans)”: the binding result in experiment [1] is reported as “binds”.

As to “CEH-93 co-expressed with His-tagged NMAD-1 in BL21 (C. elegans)”, in experiment [1], the binding result is reported as “binds”.

B1: recombinant His-tagged NMAD-1 (enzyme, C. elegans, UniProt Q8MNT9 1-291, looked up)
chain: T1 sequence
notes: NMAD-1 (F09F7.7) of C. elegans; also called HIS:NMAD-1; source: E. coli BL21, purified (Ni-NTA)
As for B1, the binding result in experiment [2] is given as “binds”.

Source of the values: paper PMC6638966, “The demethylase NMAD-1 regulates DNA replication and repair in the Caenorhabditis elegans germline” (PLoS Genetics, 2019).
